Measurements reported in PubChem BioAssay AID1224830 (NIAID, 2016).

Test: 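Host factors that control LPS-induced TNF expression in human macrophages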 (primary screen)
Cell system: human THP-1 monocytic leukaemia cells, TNF dual-luciferase reporter clone, PMA-differentiated to macrophage-like cells
Knock-down reagent: siRNA pool against human genes, 50 nM
Time to read-out: LPS for 4 h, given about 3 days after siRNA transfection
Challenge: bacterial LPS (TLR4 ligand), 10 ng/ml
Detection: 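TNF firefly reporter luminescence divided by renilla, normalised to the plate median, then turned into a robust z-score for each replicate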
Direction: TNF reporter robust z-score: higher = stronger TNF reporter response to LPS
Active means: 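a well is active when its z-score exceeds 2.8 or falls below -1.5; control wells carry no call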
In all, the deposit lists about 18,000 reagents; this is a random part of them. About 2,900 of all reagents (16%) were called active. 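Calls are made per well; low scores hint the gene aids the LPS response, high scores that it dampens it.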 Unmarked entries are inactive. Repeated entries: four replicate wells of each siRNA pool. No sequences are given here.

{"target gene":"PLOD1","TNF reporter robust z-score":-0.83}
{"target gene":"PLOD1","TNF reporter robust z-score":-0.8}
{"target gene":"PLOD1","TNF reporter robust z-score":-0.52}
{"target gene":"PLOD1","TNF reporter robust z-score":-0.99}
{"target gene":"SRP54","TNF reporter robust z-score":"-2.32 (active)"}
{"target gene":"SRP54","TNF reporter robust z-score":"-2.24 (active)"}
{"target gene":"SRP54","TNF reporter robust z-score":"-2.08 (active)"}
{"target gene":"SRP54","TNF reporter robust z-score":"-2.28 (active)"}
{"target gene":"FNDC1","TNF reporter robust z-score":1.09}
{"target gene":"FNDC1","TNF reporter robust z-score":2.29}
{"target gene":"FNDC1","TNF reporter robust z-score":2.2}
{"target gene":"FNDC1","TNF reporter robust z-score":2.43}
{"target gene":"FAP","TNF reporter robust z-score":0.75}
{"target gene":"FAP","TNF reporter robust z-score":0.04}
{"target gene":"FAP","TNF reporter robust z-score":1.09}
{"target gene":"FAP","TNF reporter robust z-score":0.19}
{"target gene":"EDF1","TNF reporter robust z-score":0}
{"target gene":"EDF1","TNF reporter robust z-score":0.56}
{"target gene":"EDF1","TNF reporter robust z-score":-0.44}
{"target gene":"EDF1","TNF reporter robust z-score":0.47}
{"target gene":"PAAF1","TNF reporter robust z-score":0.5}
{"target gene":"PAAF1","TNF reporter robust z-score":"-1.79 (active)"}
{"target gene":"PAAF1","TNF reporter robust z-score":"-1.73 (active)"}
{"target gene":"PAAF1","TNF reporter robust z-score":-1.07}
{"target gene":"L1TD1","TNF reporter robust z-score":1.29}
{"target gene":"L1TD1","TNF reporter robust z-score":0.92}
{"target gene":"L1TD1","TNF reporter robust z-score":0.19}
{"target gene":"L1TD1","TNF reporter robust z-score":0.88}
{"target gene":"VAMP1","TNF reporter robust z-score":0.06}
{"target gene":"VAMP1","TNF reporter robust z-score":-0.49}
{"target gene":"VAMP1","TNF reporter robust z-score":0.21}
{"target gene":"VAMP1","TNF reporter robust z-score":0.52}
